Values of other authors in patent publication US11702443B2, “Therapeutic agents and methods” (Pop Test Oncology LLC, priority 2016, dated 2023).
≈ marks a conversion by molar mass, not a printed value. Like-named read-outs stand apart in the source and are kept apart here. At least one structure is not confirmed: it was looked up by name or label, or the drawing left a doubt.

Columns and labels:
[1] = test system: Pseudomonas aeruginosa ATCC 10145; conditions: cited from earlier work
[2] = cited from earlier work; for Oxidation by atmospheric oxygen: to naphthoquinone form
[3] = test system: Klebsiella pneumoniae ATCC 10031; conditions: cited from earlier work
[4] = test system: Streptococcus haemolyticus = S. pyogenes C 203; conditions: Streptococcus haemolyticus C 203; cited from earlier work
[5] = test system: Proteus vulgaris ATCC 881; conditions: cited from earlier work
[6] = test system: Escherichia coli ATCC 10536; conditions: cited from earlier work
[7] = test system: Staphylococcus aureus ATCC 6538; conditions: cited from earlier work

CO[C@H]1/C=C/O[C@@]2(C)Oc3c(C)c(O)c4c(O)c(c(/C=N/N5CCN(C)CC5)c(O)c4c3C2=O)NC(=O)/C(C)=C\C=C\[C@H](C)[C@H](O)[C@@H](C)[C@@H](O)[C@@H](C)[C@H](OC(C)=O)[C@@H]1C [Rifampicin, reference compound]
MIC (μg/ml) reference 1 (1966) [1]: 10 µg/mL (≈ 12.2 µM) | Hydrolysis ([2]; to 3-formylrifamycin SV and 1-amino-4-methylpiperazine): easily hydrolysed | Oxidation by atmospheric oxygen [2]: easily oxidized by atmospheric oxygen | Oxidation by atmospheric oxygen ([2]; listed as rifampicin): readily oxidized to the naphthoquinone form | MIC (μg/ml) reference 1 (1966) [3]: 5 µg/mL (≈ 6.08 µM) | MIC (μg/ml) reference 1 (1966) [4]: 0.02 µg/mL (≈ 0.0243 µM) | MIC (μg/ml) reference 1 (1966) [5]: 5 µg/mL (≈ 6.08 µM) | MIC (μg/ml) reference 1 (1966) [6]: 1 µg/mL (≈ 1.22 µM) | MIC (μg/ml) reference 1 (1966) [7]: 0.002 µg/mL (≈ 0.00243 µM)
